Earlier results in EP1056745B1, “6,9-DISUBSTITUTED 2- TRANS-(4- AMINOCYCLOHEXYL) AMINO]PURINES” (Aventis Pharmaceuticals Inc., priority 1998, dated 1999).
pIC50: −log10 of the molar value.

Tested on: 60 human tumour cell lines
Conditions: read-out: average IC50; average over 60 lines, nine tumour types; cited from earlier work

CCC(CO)Nc1nc(NCc2ccccc2)c2ncn(C(C)C)c2n1 (stereo not shown) [Roscovitine, 2-(1-ethyl-2-hydroxyethylamino)-6-benzylamino-9-isopropylpurine]
pIC50: 4.80
